The record followed here is PMC9318729 (Toxins, 2022).

The test system of this assay is A549 cells. Put plainly: MTT cell viability assay. The format is cell-based, human. As to conditions: 24 h treatment, mean ± SEM (n = 3), read-out: IC50 against A549 cells. As to the method:
MTT assay was performed to analyze cellular viability as previously reported by us. Briefly, A549, H3122, PC-9, H460 and MRC-5 cells (1 × 10^4 cells/well) were grown in 96-well plates and exposed to the different concentrations of Smp24 (1.25–20 μM) with 24 h. […] After incubation, 10 µL MTT (5 mg/mL) was added before incubation for 4 h at 37 °C in the dark. Subsequently, the cell medium was discarded, and 200 µL DMSO was applied into each well before the absorbance value at 490 nm was determined via the microplate reader (Tecan Company, Männedorf, Switzerland). Cell proliferation was further detected by the BeyoClick™ EdU cell proliferation kit with Alexa Fluor 488 (Beyotime Institute of Biotechnology, Shanghai, China) according to the protocol of manufacturer. In brief, A549 cells (2 × 10^5 cells/well) were grown in 6-well plates and exposed to different concentrations of Smp24 (0, 1.25, 2.5 and 5 μM) for 24 h. Then, the cells were incubated with EdU for 2 h and stained with Alexa Fluor 488 for 30 min in the dark before cell fluorescence intensity was measured by flow cytometry (Becton Dickinson Company, Franklin Lakes, NJ, USA). The experiments had been performed in triplicate.
Background: Tetrazolium assays rely on reduction of a dye to a coloured formazan, in cell work by metabolically active cells.

For orientation: IC50 means the concentration that inhibits the measured activity by half.

SMILES strings stand for the structures.

For the compound `N.N.[Cl][Pt][Cl]` [cisplatin, reference compound], the 50% inhibitory concentration (IC50) was found to be 32 ± 1.79 µM.
